Source: PubChem BioAssay AID248 (DTP/NCI, 2004)
The list shows only some results of the screen, not a fair sample: it is rich in T/C values a quarter to a half above the control, in often repeated tests (any T/C) and in doses without a T/C. Other doses and runs of a compound stand elsewhere. T/C gives the treated animals as a percentage of the vehicle group. Some entries give survivors of the animals treated and no T/C: the source files T/C as zero there, which appears to mark a toxic dose or a test without result, not a measured value. Some doses without a T/C left all or most animals alive at the check, yet need not have been tolerated: survival well below the control is almost never listed, so the zero probably covers shortened survival too. Counts of survivors are from the toxicity check (mostly the fifth day) where no day follows; animals may have died later. Schedule codes are those of the source, read here as Q, the interval in days (D) or hours (H), X, the number of doses. Some schedule codes hold Z or #, which are not explained here. Some entries hold several experiments; the results are listed from low to high. For survival time, the PubChem record calls one and a half times the control and up active, and a quarter to a half above the control has no call in these data; cut-offs in other NCI protocols can differ. Brackets with × give the number of equal values in this list.

Test system: L1210 leukemia ip in BDF1 mice, survival T/C
Assay: NCI In Vivo Anticancer Drug Screen. Data for tumor model L1210 Leukemia (intraperitoneal) in B6D2F1 (BDF1) mice
Settings: T/C endpoint: mean survival time, higher T/C = longer survival
[1] = dose: 100.0 mg/kg/injection, schedule: Q01DX009 (ip), vehicle: saline
[2] = dose: 200.0 mg/kg/injection, schedule: Q01DX009 (ip), vehicle: saline
[3] = dose: 400.0 mg/kg/injection, schedule: Q01DX009 (ip), vehicle: saline
[4] = dose: 200.0 mg/kg/injection, schedule: Q01DX009 (ip), vehicle: saline with Tween-80
[5] = dose: 400.0 mg/kg/injection, schedule: Q01DX009 (ip), vehicle: saline with Tween-80

**Q.** `[Cl][Hg][S]C1CCCC1` was tested. Which survivor count (dose: 40.0 mg/kg/injection, schedule: Q01DX001 (ip), vehicle: saline) did it give?
**A.** 2 of 6

**Q.** What about the survivor count (dose: 80.0 mg/kg/injection, schedule: Q01DX001 (ip), vehicle: saline) of the same compound?
**A.** 0 of 6

**Q.** What about the survivor count (dose: 100.0 mg/kg/injection, schedule: Q01DX001 (ip), vehicle: saline) of the same compound?
**A.** 0 of 6

**Q.** What about the survivor count (dose: 200.0 mg/kg/injection, schedule: Q01DX001 (ip), vehicle: saline) of the same compound?
**A.** 0 of 6

**Q.** And the survivor count (dose: 400.0 mg/kg/injection, schedule: Q01DX001 (ip), vehicle: saline)?
**A.** 0 of 6

**Q.** Which results are given for `C[NH-].C[NH-].[Br][Pt+2][Br]`?
**A.** T/C (dose: 1.25 mg/kg/injection, schedule: Q01DX009 (ip), vehicle: water): 128 and 133 % of control; T/C (dose: 1.3 mg/kg/injection, schedule: Q01DX005 (ip), vehicle: saline with Tween-80): 129 % of control; T/C (dose: 1.3 mg/kg/injection, schedule: Q01DX009 (ip), vehicle: other): 125 % of control; T/C (dose: 2.0 mg/kg/injection, schedule: Q01DX005 (ip), vehicle: saline with Tween-80): 129 % of control; T/C (dose: 2.5 mg/kg/injection, schedule: Q01DX009 (ip), vehicle: water): 125 and 132 % of control; T/C (dose: 3.0 mg/kg/injection, schedule: Q01DX009 (ip), vehicle: other): 126 % of control; survivor count (dose: 4.5 mg/kg/injection, schedule: Q01DX005 (ip), vehicle: saline with Tween-80): 6 of 6; T/C (dose: 5.0 mg/kg/injection, schedule: Q01DX009 (ip), vehicle: water): 130 % of control; survivor count (dose: 10.0 mg/kg/injection, schedule: Q01DX009 (ip), vehicle: water): 10 of 10; T/C (dose: 12.5 mg/kg/injection, schedule: Q01DX001 (ip), vehicle: other): 125 % of control; survivor count (dose: 100.0 mg/kg/injection, schedule: Q01DX001 (ip), vehicle: other): 0 of 6; survivor count (dose: 200.0 mg/kg/injection, schedule: Q01DX001 (ip), vehicle: other): 0 of 6; survivor count (dose: 400.0 mg/kg/injection, schedule: Q01DX001 (ip), vehicle: other): 0 of 6

**Q.** Which survivor count (dose: 10.0 mg/kg/injection, schedule: Q01DX Z (ip), vehicle: carboxymethylcellulose (CMC)) does the source give for `NC(=O)c1ccc(NC(=O)CCC(=O)Nc2ccc(C(N)=O)cn2)nc1` here?
**A.** 7 of 7

**Q.** And the survivor count (dose: 20.0 mg/kg/injection, schedule: Q01DX Z (ip), vehicle: carboxymethylcellulose (CMC))?
**A.** 5 of 6

**Q.** What about the survivor count (dose: 40.0 mg/kg/injection, schedule: Q01DX Z (ip), vehicle: carboxymethylcellulose (CMC)) of the same compound?
**A.** 0 of 6

**Q.** How did the survivor count [1] turn out when `c1ccc2c(c1)CNC2` was run?
**A.** 6 of 6

**Q.** Which survivor count [1] does the source give for `O=C(CCl)Nc1cc(Cl)ccc1N1CCCC1` here?
**A.** 5 of 6

**Q.** And the survivor count [2]?
**A.** 0 of 6

**Q.** What about the survivor count [3] of the same compound?
**A.** 0 of 6

**Q.** For `COc1ccc(C)cc1NC(=O)Sc1ccc(Cl)cc1`, which survivor count [4] is on record?
**A.** 1 of 3

**Q.** `NC(=O)N/N=C(\CBr)c1ccc(Br)cc1` was tested. Which survivor count [2] did it give?
**A.** 4 of 6

**Q.** And the survivor count [3]?
**A.** 3 of 6

**Q.** What does the source list for `O=C(Nc1ccc(C2=NCCN2)cc1)c1ccc(C(=O)Nc2ccc(C3=NCCN3)cc2)c([N+](=O)[O-])c1`?
**A.** T/C (dose: 2.0 mg/kg/injection, schedule: Q#A X Z (ip), vehicle: saline): 136 % of control; T/C (dose: 2.4 mg/kg/injection, schedule: Q01DX Z (ip), vehicle: methylcellulose (MC)): 137 % of control; T/C (dose: 8.0 mg/kg/injection, schedule: Q01DX009 (ip), vehicle: saline): 141 and 148 % of control; T/C (dose: 8.0 mg/kg/injection, schedule: Q#A X Z (ip), vehicle: saline): 134 % of control; T/C (dose: 14.0 mg/kg/injection, schedule: Q07DX Z (ip), vehicle: saline): 126 % of control; T/C (dose: 16.0 mg/kg/injection, schedule: Q01DX Z (ip), vehicle: saline): 137 % of control; survivor count (dose: 16.0 mg/kg/injection, schedule: Q#A X Z (ip), vehicle: saline): 6 of 6; T/C (dose: 32.0 mg/kg/injection, schedule: Q01DX Z (sc), vehicle: steroid suspending solution): 142 % of control; survivor count (dose: 32.0 mg/kg/injection, schedule: Q#A X Z (ip), vehicle: saline): 0 of 6; survivor count (dose: 56.0 mg/kg/injection, schedule: Q07DX Z (ip), vehicle: saline): 6 of 6; survivor count (dose: 64.0 mg/kg/injection, schedule: Q01DX009 (ip), vehicle: saline): 0 of 6; survivor count (dose: 64.0 mg/kg/injection, schedule: Q01DX Z (ip), vehicle: saline): 0 of 6; survivor count (dose: 112.0 mg/kg/injection, schedule: Q07DX Z (ip), vehicle: saline): 4 of 6; survivor count (dose: 192.0 mg/kg/injection, schedule: Q03DX Z (ip), vehicle: saline): 0 of 6; survivor count (dose: 224.0 mg/kg/injection, schedule: Q07DX Z (ip), vehicle: saline): 0 of 6; survivor count (dose: 250.0 mg/kg/injection, schedule: Q01DX Z (sc), vehicle: steroid suspending solution): 0 of 7; survivor count (dose: 448.0 mg/kg/injection, schedule: Q07DX Z (ip), vehicle: saline): 0 of 6; survivor count (dose: 480.0 mg/kg/injection, schedule: Q01DX Z (oral), vehicle: saline): 2 of 7; survivor count (dose: 960.0 mg/kg/injection, schedule: Q01DX Z (oral), vehicle: saline): 0 of 7

**Q.** Which survivor count (dose: 400.0 mg/kg/injection, schedule: Q01DX009 (ip), vehicle: Klucel (hydroxypropylcellulose) (HPC)) does the source give for `C/C(=C\c1ccccc1Cl)[N+](=O)[O-]` here?
**A.** 0 of 6

**Q.** How did the T/C (dose: 100.0 mg/kg/injection, schedule: Q01DX009 (ip), vehicle: saline with Tween-80) turn out when `CCOC(=O)c1ccc(NC(=O)Nc2cc(OC)c(Cl)cc2OC)cc1` was run?
**A.** 88 (2×), 91, 92 % of control

**Q.** And the survivor count (dose: 100.0 mg/kg/injection, schedule: Q04DX003 (ip), vehicle: saline with Tween-80)?
**A.** 6 of 6

**Q.** What about the T/C [4] of the same compound?
**A.** 86, 87, 92 % of control

**Q.** What about the survivor count [4] of the same compound?
**A.** 6 of 6

**Q.** And the survivor count (dose: 200.0 mg/kg/injection, schedule: Q04DX003 (ip), vehicle: saline with Tween-80)?
**A.** 6 of 6

**Q.** What about the T/C [5] of the same compound?
**A.** 86, 87, 90 % of control

**Q.** What about the survivor count [5] of the same compound?
**A.** 3 of 3

**Q.** What about the survivor count (dose: 400.0 mg/kg/injection, schedule: Q04DX003 (ip), vehicle: saline with Tween-80) of the same compound?
**A.** 6 of 6

**Q.** `O=[N+]([O-])c1ccc(Cl)c2nonc12` was tested. Which survivor count (dose: 12.5 mg/kg/injection, schedule: Q04DX002 (ip), vehicle: Klucel (hydroxypropylcellulose) (HPC)) did it give?
**A.** 2 of 4

**Q.** What about the survivor count (dose: 25.0 mg/kg/injection, schedule: Q04DX002 (ip), vehicle: Klucel (hydroxypropylcellulose) (HPC)) of the same compound?
**A.** 2 of 4

**Q.** What about the survivor count (dose: 50.0 mg/kg/injection, schedule: Q04DX002 (ip), vehicle: Klucel (hydroxypropylcellulose) (HPC)) of the same compound?
**A.** 0 of 3 and 1 of 4

**Q.** What about the survivor count (dose: 100.0 mg/kg/injection, schedule: Q04DX002 (ip), vehicle: Klucel (hydroxypropylcellulose) (HPC)) of the same compound?
**A.** 0 of 3

**Q.** And the survivor count (dose: 200.0 mg/kg/injection, schedule: Q04DX002 (ip), vehicle: Klucel (hydroxypropylcellulose) (HPC))?
**A.** 1 of 3

**Q.** Which survivor count (dose: 100.0 mg/kg/injection, schedule: Q04DX003 (ip), vehicle: Klucel (hydroxypropylcellulose) (HPC)) does the source give for `C=C(Br)CNC(=O)C(C(F)(F)F)C(F)(F)F` here?
**A.** 4 of 6

**Q.** And the survivor count (dose: 200.0 mg/kg/injection, schedule: Q04DX003 (ip), vehicle: Klucel (hydroxypropylcellulose) (HPC))?
**A.** 0 of 6

**Q.** And the survivor count (dose: 400.0 mg/kg/injection, schedule: Q04DX003 (ip), vehicle: Klucel (hydroxypropylcellulose) (HPC))?
**A.** 0 of 6

**Q.** `Cc1[nH]c(C(=O)OCc2ccccc2)c(C)c1C(=O)OCc1ccccc1` was tested. Which survivor count (dose: 100.0 mg/kg/injection, schedule: Q01DX001 (ip), vehicle: saline with Tween-80) did it give?
**A.** 2 of 6

**Q.** `O=C(NO)c1ccccc1.O=C(NO)c1ccccc1.O=C(NO)c1ccccc1.[Fe]` was tested. Which survivor count (dose: 200.0 mg/kg/injection, schedule: Q04DX003 (ip), vehicle: DMSO) did it give?
**A.** 0 of 6

**Q.** And the survivor count (dose: 400.0 mg/kg/injection, schedule: Q04DX003 (ip), vehicle: DMSO)?
**A.** 0 of 6

**Q.** How did the survivor count (dose: 60.0 mg/kg/injection, schedule: Q01DX001 (ip), vehicle: saline) turn out when `O=C(O)C(O)C(O)C(O)C(O)C(O)CO.[Cu+2]` (stereo unspecified) was run?
**A.** 6 of 6

**Q.** What about the survivor count (dose: 75.0 mg/kg/injection, schedule: Q01DX001 (ip), vehicle: saline) of the same compound?
**A.** 0 of 6

**Q.** And the survivor count (dose: 150.0 mg/kg/injection, schedule: Q01DX001 (ip), vehicle: saline)?
**A.** 0 of 6

**Q.** And the survivor count (dose: 300.0 mg/kg/injection, schedule: Q01DX001 (ip), vehicle: saline)?
**A.** 0 of 6
